Assay [1] addresses pre-S region E. coli recombinant protein (hepatitis B virus). The experiment in a line: chemiluminescent ELISA, antigen coated. In general terms: ELISA stands for enzyme-linked immunosorbent assay.
The target in assay [2] is large surface protein of hepatitis B virus (LHBS), full-length (hepatitis B virus). Description: sandwich ELISA on pooled HBsAg(+) sera, pre-S1 antibody coated.

Results are given in words; binding and its absence hold for the method and conditions named. A result given as binding can be weak or reduced; the word gives no strength.

B1: pre-S1 monoclonal antibody (antibody, V domains shown)
VH: DVQLQESGPGLVKPSQSLSLTCTVTGYSITSDYAWNWIRQFPGNKLEWMGYIRYSGTTNYNPSLKSRISITRDTSKNQFFLQLNSVTTEDTATYYCARGGTGLTYWGQGTLVTVSA
VL: NIVMTQSPKSMSMSLGERVTLTCKASENVGTYVSWYQQKPEQSPKLLIYGASNRNTGVPDRFTGSGPATDFTLTISSVQAEDLADYLCGQTYNYPFTFGAGTKLELK
With B1, the binding result in assay [1] and in assay [2] was “binds” in each case.

The values are drawn from patent US20230018242A1.
